Consider 27 compounds from PubChem BioAssay AID248 (DTP/NCI, 2004).

The test system of the assay is L1210 leukemia ip in BDF1 mice, survival T/C. Kind of assay: NCI In Vivo Anticancer Drug Screen. Data for tumor model L1210 Leukemia (intraperitoneal) in B6D2F1 (BDF1) mice. As to conditions: T/C endpoint: mean survival time, higher T/C = longer survival.
Setting [1] is: dose: 100.0 mg/kg/injection, schedule: Q04DX003 (ip), vehicle: saline with Tween-80.
Where [2] appears, read: dose: 200.0 mg/kg/injection, schedule: Q04DX003 (ip), vehicle: saline with Tween-80.
[3] abbreviates: dose: 400.0 mg/kg/injection, schedule: Q04DX003 (ip), vehicle: saline with Tween-80.
Setting [4] is: dose: 400.0 mg/kg/injection, schedule: Q01DX009 (ip), vehicle: Klucel (hydroxypropylcellulose) (HPC).
Setting [5] is: dose: 200.0 mg/kg/injection, schedule: Q01DX009 (ip), vehicle: saline.

The list is a part of this screen's results and no random one: it gathers tests that were run many times, whatever their T/C, doses with no T/C, and many T/C values between a quarter and a half above the control. Other doses and runs of a compound stand elsewhere. T/C gives the treated animals as a percentage of the vehicle group. Some entries give survivors of the animals treated and no T/C: the source holds a T/C of zero for them, seemingly a mark for toxic or unscored doses. Some survivor counts are full or nearly so, which does not show that the dose was tolerated: the source hardly ever lists a survival T/C far under the control, and the zero likely stands for such cases as well. Counts of survivors are from the toxicity check (mostly the fifth day) where no day follows; animals may have died later. Schedules are NCI's codes, taken here to give the interval after Q, in days (D) or hours (H), and the number of doses after X. Some schedules carry Z or #; the key to these is not given. For survival time, this PubChem deposit counts one and a half times the control or more as active, and values a quarter to a half above the control carry no call in these data; other NCI protocols may use other cut-offs. Some entries were tested several times; the values are given in rising order. Some T/C values are followed by the survivors on the day toxicity was checked, most often the fifth; where none is given, no animal had died by that day.

As to `N#Cc1cc([N+](=O)[O-])c(Cl)c([N+](=O)[O-])c1Cl`, the survivor count was 0 of 6 (dose: 25.0 mg/kg/injection, schedule: Q04DX003 (ip), vehicle: saline with Tween-80); 1 of 6 under setting [1]; 0 of 6 under setting [2]; 0 of 6 under setting [3].
For `C[n+]1ccc(Nc2ccc(NC(=O)c3ccc(N)cc3[N+](=O)[O-])cc2)cc1`, the T/C (dose: 100.0 mg/kg/injection, schedule: Q01DX001 (ip), vehicle: saline with Tween-80) is listed as 100, 106, 108, 138 % of control and the T/C (dose: 200.0 mg/kg/injection, schedule: Q01DX001 (ip), vehicle: saline with Tween-80) is 93, 103, 104, 106 % of control.
As for `CC[n+]1cccc(-c2ccc(NC(=O)/C=C/c3ccc(C(=O)Nc4ccc(-c5ccc[n+](CC)c5)cc4)cc3)cc2)c1`, the T/C runs as follows: (dose: 6.25 mg/kg/injection, schedule: Q01DX Z (ip), vehicle: carboxymethylcellulose (CMC)) 148 % of control; (dose: 10.0 mg/kg/injection, schedule: Q01DX001 (ip), vehicle: carboxymethylcellulose (CMC)) 129 % of control; (dose: 16.0 mg/kg/injection, schedule: Q01DX001 (ip), vehicle: carboxymethylcellulose (CMC)) 142 % of control; (dose: 200.0 mg/kg/injection, schedule: Q01DX001 (ip), vehicle: carboxymethylcellulose (CMC)) 142 % of control.
`O=C(O)c1c(Cl)nsc1Cl`: under setting [4], the survivor count was 0 of 6.
For the compound `Cn1cnc([N+](=O)[O-])c1Sc1nc(N)nc2c1ncn2C1CC(O)C(CO)O1` (centres undefined), the T/C by setting is: (dose: 12.5 mg/kg/injection, schedule: Q01DX005 (ip), vehicle: saline) 134 % of control; (dose: 25.0 mg/kg/injection, schedule: Q01DX005 (ip), vehicle: saline) 125 % of control; (dose: 400.0 mg/kg/injection, schedule: Q01DX005 (ip), vehicle: saline) 127 % of control [5 of 6 alive]. Further, the survivor count reads like this: (dose: 50.0 mg/kg/injection, schedule: Q01DX005 (ip), vehicle: saline) 6 of 6; (dose: 100.0 mg/kg/injection, schedule: Q01DX005 (ip), vehicle: saline) 6 of 6; (dose: 200.0 mg/kg/injection, schedule: Q01DX005 (ip), vehicle: saline) 6 of 6.
For the compound `C=C1C(=O)O[C@H]2C=C(C)[C@H]3[C@@H](OC(C)=O)C[C@@](C)(O)[C@@H]3C[C@H]12`, the survivor count reads like this: (dose: 100.0 mg/kg/injection, schedule: Q01DX Z (ip), vehicle: carboxymethylcellulose (CMC)) 0 of 4; (dose: 200.0 mg/kg/injection, schedule: Q01DX Z (ip), vehicle: carboxymethylcellulose (CMC)) 0 of 4.
In the case of `O=C(CCBr)N1CCCN(C(=O)CCBr)CC1`, the T/C (dose: 240.0 mg/kg/injection, schedule: Q01DX Z (ip), vehicle: carboxymethylcellulose (CMC)) is 127 % of control. Moreover, the survivor count by setting is: (dose: 360.0 mg/kg/injection, schedule: Q01DX Z (ip), vehicle: carboxymethylcellulose (CMC)) 6 of 6; (dose: 540.0 mg/kg/injection, schedule: Q01DX Z (ip), vehicle: carboxymethylcellulose (CMC)) 3 of 6.
For the compound `CCCCCCCC[N+](CC)(CC)CCOC(=O)C(C1CCCC1)C1CCCC1`, the survivor count is, setting by setting: (dose: 5.0 mg/kg/injection, schedule: Q01DX009 (ip), vehicle: saline) 2 of 6; (dose: 10.0 mg/kg/injection, schedule: Q04DX003 (ip), vehicle: saline) 5 of 6.
For `Brc1ccccc1C[n+]1cccc2ccccc21`, the survivor count by setting is: (dose: 150.0 mg/kg/injection, schedule: Q01DX001 (ip), vehicle: other) 0 of 6; (dose: 300.0 mg/kg/injection, schedule: Q01DX001 (ip), vehicle: other) 0 of 6.
Consider `Cc1cccc(C)c1NC(=O)Nc1ccc(CCO)cc1`, for which the survivor count under setting [4] was 6 of 6.
Consider `c1ccc(C[N+](Cc2ccccc2)=C2CCCCC2)cc1`, for which the survivor count runs as follows: under setting [5], 1 of 6; (dose: 400.0 mg/kg/injection, schedule: Q04DX003 (ip), vehicle: saline) 0 of 6.
As for `C=CCc1cccc(OC)c1OCCN(CC)CC`, the survivor count (dose: 100.0 mg/kg/injection, schedule: Q01DX009 (ip), vehicle: saline) is recorded as 0 of 6; the survivor count under setting [5] is reported as 0 of 6; the survivor count (dose: 400.0 mg/kg/injection, schedule: Q01DX009 (ip), vehicle: saline) is reported as 0 of 6.
Turning to `CC(=O)Nc1ccc(S(=O)(=O)Oc2ccc([N+](=O)[O-])cc2)cc1`, under setting [5], the survivor count is 6 of 6.
Take `Cc1cc(C)c(C#[N+][O-])c(C)c1`: the survivor count under setting [1] is 6 of 6.
`CCCn1c2c(c(=O)n(CC)c1=O)SC(OCC)C(=O)N2` (centres undefined): the survivor count (dose: 262.5 mg/kg/injection, schedule: Q01DX Z (ip), vehicle: other) is reported as 6 of 6.
On to `COc1cc(N=Nc2ccc([N+](=O)[O-])cc2)c(OC)cc1N`, for which the survivor count by setting is: (dose: 80.0 mg/kg/injection, schedule: Q01DX001 (ip), vehicle: other) 2 of 4; (dose: 100.0 mg/kg/injection, schedule: Q01DX001 (ip), vehicle: other) 0 of 4; (dose: 200.0 mg/kg/injection, schedule: Q01DX001 (ip), vehicle: other) 0 of 4; (dose: 400.0 mg/kg/injection, schedule: Q01DX001 (ip), vehicle: other) 0 of 4.
For `CCc1nc(N[N+](=O)[O-])nc(N)c1-c1ccccc1O`, the survivor count (dose: 200.0 mg/kg/injection, schedule: Q04DX002 (ip), vehicle: Klucel (hydroxypropylcellulose) (HPC)) is listed as 3 of 3.
With `CCCCCCCSc1ncnc2c1ncn2CO`, the T/C is, setting by setting: (dose: 175.0 mg/kg/injection, schedule: Q01DX009 (ip), vehicle: other) 135 % of control [4 of 6 alive]; (dose: 175.0 mg/kg/injection, schedule: Q01DX009 (ip), vehicle: saline) 125 % of control; (dose: 265.0 mg/kg/injection, schedule: Q01DX009 (ip), vehicle: other) 138 % of control; (dose: 265.0 mg/kg/injection, schedule: Q01DX009 (ip), vehicle: saline) 142 % of control [5 of 6 alive].
As to `CC(CCc1ccc(O)cc1)OC=O` (centres undefined), the survivor count (dose: 500.0 mg/kg/injection, schedule: Q01DX Z (ip), vehicle: saline) is 2 of 6.
Turning to `O=C1CCC(=O)N1C(=O)c1ccccc1`, the survivor count (dose: 338.0 mg/kg/injection, schedule: Q01DX Z (ip), vehicle: methylcellulose (MC)) is on record as 6 of 6.
In the case of `O=C1N=C(c2ccccc2)OC1C(=O)c1ccccc1` (centres undefined), under “dose: 400.0 mg/kg/injection, schedule: Q01DX001 (ip), vehicle: saline”, the survivor count was 1 of 4.
On to `ClCCN(CCCl)c1ccc(C[n+]2ccc3ccccc3c2)cc1`, for which the survivor count (dose: 64.0 mg/kg/injection, schedule: Q01DX015 (ip), vehicle: carboxymethylcellulose (CMC)) is recorded as 0 of 6.
Turning to `O=[N+]([O-])/C=C/c1ccc([N+](=O)[O-])cc1Cl`, the survivor count reads like this: (dose: 75.0 mg/kg/injection, schedule: Q01DX009 (ip), vehicle: saline with Tween-80) 0 of 6; under setting [1], 3 of 6; (dose: 115.0 mg/kg/injection, schedule: Q01DX009 (ip), vehicle: saline with Tween-80) 0 of 6; (dose: 170.0 mg/kg/injection, schedule: Q01DX009 (ip), vehicle: saline with Tween-80) 0 of 6; under setting [2], 5 of 6.
Consider `Cc1noc(-c2ccc([N+](=O)[O-])o2)n1`, for which, under “dose: 400.0 mg/kg/injection, schedule: Q04DX002 (ip), vehicle: Klucel (hydroxypropylcellulose) (HPC)”, the survivor count was 0 of 3.
`CCOC(=O)c1cccc2ccc[n+](C)c12`: the survivor count (dose: 300.0 mg/kg/injection, schedule: Q01DX001 (ip), vehicle: saline) is given as 2 of 6.
As to `NC(=S)N/N=C\c1ncnc2ccccc12`, the survivor count (dose: 10.8 mg/kg/injection, schedule: Q03HX032 (ip), vehicle: saline with Tween-80) was 4 of 10. Further, the T/C was 132 % of control (dose: 12.5 mg/kg/injection, schedule: Q01DX009 (ip), vehicle: saline) and 130 % of control (dose: 25.0 mg/kg/injection, schedule: Q01DX009 (ip), vehicle: saline).
Turning to `O=c1oc(-c2cc([N+](=O)[O-])ccc2Cl)nc2ccccc12`, under setting [3], the survivor count is 6 of 6.
